From PubChem BioAssay AID2417 (National Center for Advancing Translational Sciences (NCATS), 2010)
The campaign covered roughly 140,000 compounds. About 4,300 (3.1%) were called active. The inconclusive results got no clear call from the source; some entries with a clear call stand among them for comparison.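 How the source made its calls: active means readout at or below -70, meaning at least 70% loss of cells showing the perinucleolar compartment, a nuclear body marking cancer cells; inconclusive means readout between -30 and a set limit; inactive means the rest.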

Assay: High Content Assay for Compounds that inhibit the Assembly of the Perinucleolar Compartment;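 further: plate controls were DMSO wells for no effect and camptothecin positive control wells for full effect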
Conditions: PC3M PTB-GFP, PNC prevalence imaging, 16 h; at 10 µM; stronger effect = lower value
How it was run: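 Compounds are pinned in duplicate onto adhered PC3M cells stably expressing GFP-tagged PTB and incubated 16 h at 37 C. Cells are then fixed, nuclei stained with Hoechst, and PNC-positive cells counted.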

| SMILES | activity change (PNC), negative = inhibition |
| --- | --- |
| COc1ccc(S(=O)(=O)NC(CC(=O)N2CCc3ccccc32)c2ccco2)cc1 (stereo unspecified) | active: -82% |
| COC(=O)[C@@H](NC(=O)Nc1ccc(OC(F)(F)F)cc1)C(C)C | inactive: 0% |
| COc1ccc(C(c2nnnn2C2CCCCC2)N2CCN(c3ccccc3F)CC2)cc1 (stereo unspecified) | inconclusive: -57.4% |
| O=C1c2ccncc2C(=O)N1Cc1cccc(Cl)c1 | inactive: 9.14% |
| COc1cc(/C=N/NC(=O)c2cc(C34CC5CC(CC(C5)C3)C4)[nH]n2)ccc1O | inconclusive: -43.3% |
| N#Cc1c(N)c(C#N)c(-c2ccc3c(c2)OCO3)c2c1CCCC2 | inactive: -26.6% |
| CCOC(=O)CCCCCN(Cc1ccccc1)S(=O)(=O)c1ccc([N+](=O)[O-])cc1 | inconclusive: -55.3% |
| Nc1cc(C(F)(F)F)cc2c1SCC(=O)N2 | inconclusive: -42% |
| COc1ccc(CNc2oc(C)nc2C#N)cc1 | inconclusive: -46.9% |
| CCOC(=O)N1CCN(S(=O)(=O)c2cc(Br)cc3c2N(C(=O)CC)CC3)CC1 | inconclusive: -35.9% |
| O=C(NCCc1ccc(Cl)cc1)/C(=C/c1cccnc1)NC(=O)c1ccccc1 | inactive: 166% |
| CC1(C)CC(=O)C(CC2=C(O)CC(C)(C)CC2=O)=C(O)C1 | inconclusive: -42.6% |
| Cc1cc(C)cc(NS(=O)(=O)c2ccc(Oc3ncc(C(F)(F)F)cc3Cl)cc2)c1 | inconclusive: -52.3% |
| O=C(c1cccc(S(=O)(=O)N2CCCCC2)c1)N1CCCCC1 | inconclusive: -59.4% |
| COC(=O)c1c(NC(=O)c2ccco2)sc(C(=O)N(C)C)c1C | active: -100% |
| Cc1ccc(S(=O)(=O)N2CCC(=O)N(C(COCc3cccc(C)c3)C(C)C)CC2)cc1 (stereo unspecified) | inconclusive: -51.1% |
| CC(=O)c1ccc(N/N=C(/C(N)=O)C2=NC(C)(C)Cc3ccccc32)cc1 | inconclusive: -65.6% |
| O=C(c1ccco1)N1CCN(C(c2ccc(Cl)cc2)c2nnnn2CC2CCCO2)CC1 (stereo unspecified) | inactive: 5.47% |
| Clc1ccc(-n2nnnc2-c2ccccc2)cc1Cl | inconclusive: -45% |
| Cc1ccc(-c2nsc3c(N4CCC(C(N)=O)CC4)ncnc23)cc1 | inconclusive: -31.7% |
| COc1ccc(C(=O)N2CCN(C(=O)c3ccco3)CC2)cc1 | inactive: -13.2% |
| Cc1cccc(C(=O)NC(=S)Nc2ccccc2C(F)(F)F)c1 | inactive: 43.3% |
| Cc1ccc(-c2noc(CSc3nnc(Cc4ccccc4)n3-c3cccc(C)c3)n2)cc1 | inconclusive: -60.8% |

| SMILES | activity change (PNC), negative = inhibition |
| --- | --- |
| COc1cc(NC(=O)c2ccc(Br)o2)c(C(=O)O)cc1OC | inconclusive: -34.5% |
| CCOC(=O)CCSc1nc(C)c2cc(OC)ccc2n1 | inconclusive: -30.9% |
| O=C(CC1NC2CCCCC2NC1=O)Nc1cccc(C(F)(F)F)c1 (stereo unspecified) | inactive: -6.89% |
| Cc1cccc(C)c1NC(=O)CNC(=O)CCC(=O)c1cccs1 | inactive: 14.5% |
| Cc1cc(C)cc(NC(=O)C(=O)NCc2ccccn2)c1 | active: -84.2% |
| CC(CCc1ccccc1)NC(=O)c1ccc(NC(=O)c2cccc(Br)c2)cc1 (stereo unspecified) | active: -113% |
| O=C(Nc1cccc(F)c1)C1CCN(c2nnnn2-c2ccccc2)CC1 | inconclusive: -36.1% |
| CCC1Sc2ccccc2N(CC(=O)NCCC(C)C)C1=O (stereo unspecified) | inactive: 44.9% |
| O=C(O)c1ccc(S(=O)(=O)NC2CCCCC2)cc1 | inactive: 21.5% |
| CN=C1S/C(=C\c2cc(C)n(-c3ccccc3F)c2C)C(=O)N1C | inactive: 22.3% |
| CCOCCCNC(=S)N1C2CCC1CC(NC(=O)NC1CCCCC1)C2 (stereo unspecified) | inconclusive: -66.4% |
| O=C(Nc1ccccc1)N(Cc1cccs1)C1CCCC1 | inconclusive: -41.4% |
| O=C(Oc1ccc2cc(Br)ccc2c1)c1cccnc1 | inconclusive: -36.8% |
| CCOC(=O)N1CCN(C(=O)Nc2ccc3nccnc3c2)CC1 | inconclusive: -49.4% |
| Cc1c(C(=O)NCCN2CCOCC2)oc2ccc(S(=O)(=O)N3CCCCCC3)cc12 | inconclusive: -32.2% |
| CC(C)C(=O)Nc1ccc(NC(=O)c2ccccn2)cn1 | inactive: -15.9% |
| COc1ccc(NS(=O)(=O)c2cc(OC)ccc2NC(=O)c2cc(C)oc2C)cc1 | active: -100% |
| COCCSc1ccccc1C(=O)N1CCOCC1 | inconclusive: -35.2% |
| COc1cccc(C(=O)CSc2nc3ccccc3n2CC(=O)N(C(C)C)C(C)C)c1 | active: -100% |
| CC(C)CCOc1ccc(C(=O)CCNC(C)C(=O)O)cc1 (stereo unspecified) | inactive: 29.1% |
| O=C(NCc1ccc(Cl)cc1)C(=O)NCC1OCCN1C(=O)c1cccs1 (stereo unspecified) | inactive: -28.7% |
| O=C(NCC(F)(F)F)Nc1cccnc1 | active: -100% |
| CCCN(CCC)C(=O)c1ccc2c(c1)OCO2 | inactive: 23.8% |

| SMILES | activity change (PNC), negative = inhibition |
| --- | --- |
| CCc1nnc(NC(=O)/C=C/c2ccco2)s1 | inconclusive: -33.8% |
| CCCS(=O)(=O)c1nc(S(=O)(=O)c2ccc(C)cc2)c(N2CCCC2)s1 | inconclusive: -31.1% |
| O=C(COc1ccc(Cl)cc1)NCCSc1ccccc1 | inactive: 8.59% |
| CS(=O)(=O)c1ncc(Cl)c(C(=O)Nc2ccc(N3CCOCC3)cc2)n1 | inactive: -7.96% |
| COC(=O)c1ccccc1NC(=O)C1CCCO1 (stereo unspecified) | inactive: 41% |
| CCC(C)NC(=O)C1CCCN1S(=O)(=O)c1ccc(Cl)cc1 (stereo unspecified) | active: -119% |
| COc1ccc(C)cc1NC(=O)C(OC(=O)c1ccc(Cl)c(S(=O)(=O)N(C)c2ccccc2)c1)c1ccccc1 (stereo unspecified) | inactive: 24.4% |
| O=C/C(=C\Nc1ccccn1)c1nc2cc(Cl)ccc2o1 | inconclusive: -69% |
| Fc1c(F)c(F)c(N/N=C/c2c[nH]c3ccccc23)c(F)c1F | inconclusive: -50.2% |
| Cc1c(/C=N/NC(=O)CNc2ccccc2)c2ccccn2c1C(=O)c1ccncc1 | inconclusive: -69% |
| COC(=O)C1=NN(N=O)C2(CC(=O)N(c3cc(C)cc(C)c3)C2=O)C1 (stereo unspecified) | inconclusive: -52.3% |
| O=C(/C=C/c1c(Cl)cccc1Cl)NCc1ccccc1 | inactive: -1.54% |
| COC(=O)CC1C(=O)NCCN1C(=O)NC1CCCCC1 (stereo unspecified) | inactive: 7.2% |
| CCOC(=O)c1cccc(NC(=O)CSc2nnc(C3CCCCC3)n2C)c1 | inconclusive: -50.1% |
| C=CCc1cccc2cc(C(=O)N3CCN(C(=O)c4ccco4)CC3)c(=O)oc12 | inconclusive: -63.7% |
| CC1Cc2cc(/C(O)=C3/C(=O)C(=O)N(CCCn4ccnc4)C3c3cccnc3)ccc2O1 (stereo unspecified) | inactive: 13.3% |
| Cc1c(Cl)cccc1NC(=O)CNC(=O)c1ccccc1F | inconclusive: -30.3% |
| COc1ccccc1Cn1c(=S)[nH]c2cc(C(=O)NCCN3CCOCC3)ccc2c1=O | inconclusive: -42.3% |
| CCC(c1nnnn1Cc1ccccc1)N(Cc1ccco1)Cc1cc2cc(OC)ccc2[nH]c1=O (stereo unspecified) | inactive: -7.12% |
| CCC(C)N(C(=O)Cn1nnc2ccccc21)C(C(=O)NCc1ccco1)c1cccc(OC)c1 (stereo unspecified) | inconclusive: -69% |
| CS(=O)(=O)Nc1ccc(C2=NN(C(=O)c3ccco3)C(c3ccccc3)C2)cc1 (stereo unspecified) | inconclusive: -75.4% |
| CCOC(=O)CN(C(=O)Cn1nnc2ccccc21)C(C(=O)NCCOC)c1ccccc1 (stereo unspecified) | inconclusive: -54.4% |
| Cc1cccn2cc(CSc3nnc(Nc4ccc(C(C)C)cc4)s3)nc12 | inconclusive: -40.7% |

| SMILES | activity change (PNC), negative = inhibition |
| --- | --- |
| CC(C)(C)n1nc2c(c1NC(=O)c1cccc(C(F)(F)F)c1)CS(=O)C2 (stereo unspecified) | inconclusive: -32% |
| COc1ccccc1OCCn1c(=O)sc2ccccc21 | inconclusive: -68.2% |
| CCOC(=O)C1CCCN(C(=O)Cn2nc(CC)n3c(cc4sccc43)c2=O)C1 (stereo unspecified) | inconclusive: -37.1% |
| CC(=O)SC(C)CC(=O)Nc1ccccc1 (stereo unspecified) | inactive: 13.8% |
| Cc1ccc(C)c(N2CCN(C(=O)c3csc(C)c3C)CC2)c1 | inactive: 13.5% |
| O=c1c(Cc2ccccc2O)c(O)nc2n1CCCS2 | inconclusive: -41.7% |
| Cc1ccc(NC(=O)CN2C(=O)NC(Cc3c[nH]c4ccccc34)C2=O)cc1S(=O)(=O)N1CCCCC1 (stereo unspecified) | inactive: -25.2% |
| O=C(NCc1ccc(F)cc1)c1ccccc1OCc1ccccc1 | inconclusive: -37.8% |
| Cn1c(=O)nc2n(Cc3ccccc3)c3ccccc3cc-2c1=O | inconclusive: -31.8% |
| CCn1ncc(Cl)c1C(=O)NC(=S)Nc1c(C)cc(C)cc1[N+](=O)[O-] | inconclusive: -61.4% |
| Brc1ccc(-c2cn3nc4c(nc3n2)CCCC4)cc1 | active: -99.8% |
| COc1ccc(COC(=O)C2=C(C)NC(=O)NC2c2ccc(O)c(OC)c2)cc1 (stereo unspecified) | inconclusive: -40.4% |
| O=C1NC(c2cccc(Br)c2)=N/C1=C\c1ccco1 | inactive: 10% |
| CCOC(=O)C(Cc1ccccc1)C(=O)Nc1cccc2ccccc12 (stereo unspecified) | inactive: 17.1% |
| Cc1cccc(-n2c(C)cc(C(=O)NC3CCCCC3)c2C)c1 | inconclusive: -66.7% |
| CC(O)[C@H](NC(=O)C1(c2ccccc2)CCN(C(=O)OC(C)(C)C)CC1)C(=O)O (stereo partly specified) | inconclusive: -40.2% |
| O=c1[nH]c(-c2ccncc2)nc2ccccc12 | inactive: 7.05% |
| O=C(O)C1CCCN1S(=O)(=O)c1ccccc1 (stereo unspecified) | inactive: -23.3% |
| Cc1cccc(Nc2nc(N)nc(CC(=O)CSc3ccc(Cl)cc3)n2)c1 | inactive: -17.9% |
| O=c1[nH]c2cc3c(cc2cc1CN(Cc1cccs1)Cc1nnnn1Cc1ccco1)OCCO3 | inconclusive: -43.7% |
| O=C1C(O)CC2c3ccccc3CC3(CCCC3)N12 (stereo unspecified) | inconclusive: -45.8% |
| COc1ccc(/C=N/NC(=O)C(Cc2c[nH]c3ccccc23)NC(=O)OCC(C)C)cc1[N+](=O)[O-] (stereo unspecified) | inconclusive: -46.6% |
